# Experimental data published in US20070092577A1, “Dietary calcium for reducing the production of reactive oxygen species” (University of Tennessee Research Foundation, priority 2005, published 2007).
# At least one structure is not confirmed: it was looked up by name or label, or the drawing left a doubt.
# Tests used:
# cyclin A = assay: Cyclin A expression in 3T3-L1 adipocytes; assay type: cell-based, murine; details: added to glucose 30 mmol/L, 48 hours; nifedipine 10 μmol/L
# Method: 3T3-L1 preadipocytes were incubated at a density of 8000 cells/cm^2 (10 cm^2 dish) and grown in Dulbecco's modified Eagle's medium (DMEM) containing 10% FBS and antibiotics (adipocyte medium) at 37° C. in 5% CO2 in air. Confluent preadipocytes were induced to differentiate with a standard differentiation medium consisting of DMEM-F 10 (1:1, vol/vol) medium supplemented with 1% FBS, 1 μM dexamethasone, IBMX (0.5 mM) and antibiotics (1% Penicillin-Streptomycin). Preadipocytes were maintained in this differentiation medium for 3 days and subsequently cultured in adipocyte medium. Cultures were re-fed every 2-3 days to allow 90% of cells to reach full differentiation before conducting chemical treatment. Chemicals were freshly diluted in adipocyte medium before treatment. […] Cell viability was measured via trypan blue exclusion. Adipocyte 18s, cyclin A, NADPH oxidase, and UCP2 were quantitatively measured using a Smart Cycler Real Time PCR System (Cepheid, Sunnyvale, Calif.) with a TaqMan 1000 Core Reagent Kit (Applied Biosystems, Branchburg, N.J.). […] Reactions of quantitative RT-PCR for standards and unknown samples were also performed according to the instructions of Smart Cycler System (Cepheid, Sunnyvale, Calif.) and TaqMan Real Time PCR Core Kit (Applied Biosystems, Branchburg, N.J.). The mRNA quantitation for each sample was further normalized using the corresponding 18s quantitation.
# IL-6 = IL-6 expression in differentiated 3T3-L1 adipocytes; assay type: cell-based, mouse; details: nifedipine 10 μmol/L plus 10 nmol/L 1α, 25-(OH)2-D3, 48 h; p=0.016
# Method: 3T3-L1 pre-adipocytes were incubated at a density of 8000 cells/cm^2 (10 cm^2 dish) and grown in Dulbecco's modified Eagle's medium (DMEM) containing 10% FBS and antibiotics (adipocyte medium) at 37° C. in 5% CO2 in air. Confluent pre-adipocytes were induced to differentiate with a standard differentiation medium consisting of DMEM-F10 (1:1, vol/vol) medium supplemented with 1% fetal bovine serum (FBS), 1 μM dexamethasone, isobutylmethylxanthine (IBMX) (0.5 mM) and antibiotics (1% Penicillin-Streptomycin). Pre-adipocytes were maintained in this differentiation medium for 3 days and subsequently cultured in adipocyte medium. […]
# Cells were incubated in serum free medium overnight before chemical treatment. […] Cell viability was measured via trypan blue exclusion.
# Adipocyte and muscle 18s, TNFα, IL-6, IL-8, IL-15 and adiponectin were quantitatively measured using a smart cycler real-time PCR system (Cepheid, Sunnyvale, Calif.) with a TaqMan 1000 Core Reagent Kit (Applied Biosystems, Branchburg, N.J.). […] Reactions of quantitative RT-PCR for standards and unknown samples were also performed according to the instructions of Smart Cycler System (Cepheid, Sunnyvale, Calif.) and TaqMan Real Time PCR Core Kit (Applied Biosystems, Branchburg, N.J.). The mRNA quantitation for each sample was further normalized using the corresponding 18s quantitation. […]
# 3T3-L1 adipocytes = assay: DNA synthesis / cell proliferation (CyQUANT); assay type: cell-based, murine; details: 48 hours, nifedipine 10 μmol/L
# Method: 3T3-L1 preadipocytes were incubated at a density of 8000 cells/cm^2 (10 cm^2 dish) and grown in Dulbecco's modified Eagle's medium (DMEM) containing 10% FBS and antibiotics (adipocyte medium) at 37° C. in 5% CO2 in air. Confluent preadipocytes were induced to differentiate with a standard differentiation medium consisting of DMEM-F 10 (1:1, vol/vol) medium supplemented with 1% FBS, 1 μM dexamethasone, IBMX (0.5 mM) and antibiotics (1% Penicillin-Streptomycin). Preadipocytes were maintained in this differentiation medium for 3 days and subsequently cultured in adipocyte medium. Cultures were re-fed every 2-3 days to allow 90% of cells to reach full differentiation before conducting chemical treatment. Chemicals were freshly diluted in adipocyte medium before treatment. Cells were washed with fresh adipocyte medium, re-fed with medium containing the different treatments, and incubated at 37° C. in 5% CO2 in air before analysis. Cell viability was measured via trypan blue exclusion. Cells were plated in DMEM with different treatment in duplicate in 96-well plates. After 48 h, a CyQUANT Cell Proliferation Kit (Molecular Probes, Eugene, Oreg.) was used following the manufacturer's protocol a microplate fluorometer (Packard Instrument Company, Inc., Downers Grove, Ill.) was used to measure CyQUANT fluorescence. Cell viability was determined by Trypan blue exclusion examination.
structure (smiles),measurement,setting,value
COC(=O)C1=C(C)NC(C)=C(C(=O)OC)C1c1ccccc1[N+](=O)[O-] [nifedipine],effect on glucose stimulated cyclin A expression,cyclin A,suppressed
same,"effect on 1α, 25-(OH)2-D3 increased IL-6 expression",IL-6,reversed
same,effect on glucose induced DNA synthesis,3T3-L1 adipocytes; added to glucose 30 mmol/L,decreased
same,effect on H2O2 induced DNA synthesis,"3T3-L1 adipocytes; with H2O2 100 nmol/L, α-tocopherol 1 μmol/L",suppressed
